{"sequences": {"note": "The chains behind the UniProt entries cited, without tags or fusion partners. Where a name states a change or a piece, a line headed by the entry shows the natural chain unless it says otherwise.", "UniProt Q96CV9": "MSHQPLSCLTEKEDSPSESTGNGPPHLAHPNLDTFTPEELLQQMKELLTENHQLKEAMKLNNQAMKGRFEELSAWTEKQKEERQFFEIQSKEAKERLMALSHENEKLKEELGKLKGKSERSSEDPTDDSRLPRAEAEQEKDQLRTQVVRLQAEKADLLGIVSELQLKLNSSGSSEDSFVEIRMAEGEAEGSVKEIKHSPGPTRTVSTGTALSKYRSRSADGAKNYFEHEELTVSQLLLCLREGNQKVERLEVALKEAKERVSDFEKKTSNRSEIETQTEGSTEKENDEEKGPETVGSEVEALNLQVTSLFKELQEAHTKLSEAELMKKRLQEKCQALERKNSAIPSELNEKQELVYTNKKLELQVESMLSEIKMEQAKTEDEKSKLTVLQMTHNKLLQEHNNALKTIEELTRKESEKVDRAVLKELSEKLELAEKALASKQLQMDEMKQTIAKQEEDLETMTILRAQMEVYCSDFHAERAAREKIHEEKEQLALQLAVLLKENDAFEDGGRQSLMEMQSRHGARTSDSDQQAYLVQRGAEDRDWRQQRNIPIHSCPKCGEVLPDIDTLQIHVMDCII", "UniProt Q96EP0": "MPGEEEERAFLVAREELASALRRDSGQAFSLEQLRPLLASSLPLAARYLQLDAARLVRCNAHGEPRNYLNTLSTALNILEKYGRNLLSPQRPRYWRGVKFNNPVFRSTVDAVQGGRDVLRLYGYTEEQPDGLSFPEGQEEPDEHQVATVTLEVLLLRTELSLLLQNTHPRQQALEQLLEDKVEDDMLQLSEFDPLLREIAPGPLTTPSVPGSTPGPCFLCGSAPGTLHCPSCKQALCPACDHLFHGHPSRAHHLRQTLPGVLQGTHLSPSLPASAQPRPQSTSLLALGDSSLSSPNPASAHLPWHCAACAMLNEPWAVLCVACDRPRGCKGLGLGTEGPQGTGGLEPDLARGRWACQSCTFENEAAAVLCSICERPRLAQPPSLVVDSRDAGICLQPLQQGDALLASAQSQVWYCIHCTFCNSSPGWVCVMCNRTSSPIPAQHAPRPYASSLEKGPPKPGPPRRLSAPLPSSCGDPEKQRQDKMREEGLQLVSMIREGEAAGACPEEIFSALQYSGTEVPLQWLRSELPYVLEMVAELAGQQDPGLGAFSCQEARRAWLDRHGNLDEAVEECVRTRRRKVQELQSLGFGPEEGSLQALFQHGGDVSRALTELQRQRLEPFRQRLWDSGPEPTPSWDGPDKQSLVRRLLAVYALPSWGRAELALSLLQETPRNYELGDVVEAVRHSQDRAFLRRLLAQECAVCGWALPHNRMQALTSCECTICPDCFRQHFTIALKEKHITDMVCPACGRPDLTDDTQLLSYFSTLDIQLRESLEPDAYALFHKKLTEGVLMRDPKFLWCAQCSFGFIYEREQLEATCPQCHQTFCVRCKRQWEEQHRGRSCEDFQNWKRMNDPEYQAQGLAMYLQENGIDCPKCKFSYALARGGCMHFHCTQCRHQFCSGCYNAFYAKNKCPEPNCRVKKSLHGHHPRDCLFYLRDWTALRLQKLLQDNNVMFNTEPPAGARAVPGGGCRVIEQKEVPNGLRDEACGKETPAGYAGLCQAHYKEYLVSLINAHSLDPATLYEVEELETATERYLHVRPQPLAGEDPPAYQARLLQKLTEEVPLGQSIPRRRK"}, "source": "paper PMC7328155", "assay_in_all_cases": "co-IP; GFP immunoprecipitation (GFP-nanobody Affi-gel resin, 3 h) from lysates of HEK293T cells transiently co-transfected with GFP–OPTN variants and HA–HOIP; 1% NP-40 lysis buffer (50 mM Tris-HCl pH 7.5, 150 mM NaCl, 1 mM EDTA); blots probed with GFP and HA antibodies", "key": {"[1]": {"biological_target": "GFP–OPTN wild-type (UniProt Q96CV9)"}, "[2]": {"biological_target": "GFP–OPTN E50K (UniProt Q96CV9)"}, "[3]": {"biological_target": "GFP–OPTN E478G (UniProt Q96CV9)"}}, "note": "Results are given in words; binding and its absence hold for the method and conditions named. In cells and extracts the contact can be indirect. Some binding calls cover weakened binding; strength is not graded here."}
{"substance": "HA–HOIP (from UniProt Q96EP0 1-1072)", "values": [{"measurement": "binding", "setting": "[1]", "value": "binds"}, {"measurement": "binding", "setting": "[2]", "value": "binds"}, {"measurement": "binding", "setting": "[3]", "value": "no binding"}]}
